Data set [1] relates to cell structure having a liver sinusoidal network produced using heparin and a collagen solution (Example B). Put plainly: Toxicity evaluation by ATP assay, cell structure of Example B (produced using heparin and a collagen solution). As to conditions: Homo sapiens, read-out: IC50 Example B.
The conditions of data set [2]: Yes/No; Yes for No. 1-14, No for No. 15-18; cited from earlier work.
Data set [3] concerns cell structure having a liver sinusoidal network produced using CMF (Example A). Put plainly: Toxicity evaluation by ATP assay, cell structure of Example A (produced using CMF). As to conditions: Homo sapiens, read-out: IC50 Example A.

The values that follow come from patent US20220411750A1, “CELL STRUCTURE, PRODUCTION METHOD THEREOF, AND METHOD FOR EVALUATING HEPATOTOXICITY OF SUBSTANCE TO BE TESTED” (TOPPAN INC., priority 2019, published 2022).

The structures appear in SMILES notation.

What is called IC50 is the concentration that inhibits the measured activity by half. As for `COC(=O)C1=C(C)NC(C)=C(C(=O)OC)C1c1ccccc1[N+](=O)[O-]` [Nifedipine], the figures for the IC50 in data set [1] and in data set [3] were 360 µM and 552 µM, respectively. Also, the Toxicity entry in data set [2] is “Yes”.
